# Percent effect of library compounds

Amino acid sequences for entries named in this document (tags omitted). Residues count along the entry.
UniProt P9WPC5, whole entry: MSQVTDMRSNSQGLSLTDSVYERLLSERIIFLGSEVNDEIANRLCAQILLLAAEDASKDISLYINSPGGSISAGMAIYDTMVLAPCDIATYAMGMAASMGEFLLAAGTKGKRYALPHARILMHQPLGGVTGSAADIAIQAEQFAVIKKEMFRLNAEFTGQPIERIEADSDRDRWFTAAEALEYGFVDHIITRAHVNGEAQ
UniProt P9WPC3, whole entry partner: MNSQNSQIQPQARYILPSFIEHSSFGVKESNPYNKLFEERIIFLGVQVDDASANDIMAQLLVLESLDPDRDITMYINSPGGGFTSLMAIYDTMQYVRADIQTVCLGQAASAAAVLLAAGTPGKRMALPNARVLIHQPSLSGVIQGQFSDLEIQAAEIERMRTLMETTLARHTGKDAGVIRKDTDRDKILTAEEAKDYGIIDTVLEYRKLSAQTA
UniProt Q4DA54, 1-478: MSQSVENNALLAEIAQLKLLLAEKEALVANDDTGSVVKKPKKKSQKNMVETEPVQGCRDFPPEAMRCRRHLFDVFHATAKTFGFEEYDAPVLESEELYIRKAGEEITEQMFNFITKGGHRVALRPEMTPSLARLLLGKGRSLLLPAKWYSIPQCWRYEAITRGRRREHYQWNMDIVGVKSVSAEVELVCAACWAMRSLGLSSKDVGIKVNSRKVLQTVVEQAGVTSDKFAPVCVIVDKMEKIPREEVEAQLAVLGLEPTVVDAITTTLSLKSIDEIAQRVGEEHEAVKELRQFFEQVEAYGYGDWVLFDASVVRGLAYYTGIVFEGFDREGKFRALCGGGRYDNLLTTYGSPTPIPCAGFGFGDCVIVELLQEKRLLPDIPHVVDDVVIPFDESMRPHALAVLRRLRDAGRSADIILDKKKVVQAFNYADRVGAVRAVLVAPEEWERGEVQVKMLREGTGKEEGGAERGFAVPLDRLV
UniProt Q8IDJ8, 1-583: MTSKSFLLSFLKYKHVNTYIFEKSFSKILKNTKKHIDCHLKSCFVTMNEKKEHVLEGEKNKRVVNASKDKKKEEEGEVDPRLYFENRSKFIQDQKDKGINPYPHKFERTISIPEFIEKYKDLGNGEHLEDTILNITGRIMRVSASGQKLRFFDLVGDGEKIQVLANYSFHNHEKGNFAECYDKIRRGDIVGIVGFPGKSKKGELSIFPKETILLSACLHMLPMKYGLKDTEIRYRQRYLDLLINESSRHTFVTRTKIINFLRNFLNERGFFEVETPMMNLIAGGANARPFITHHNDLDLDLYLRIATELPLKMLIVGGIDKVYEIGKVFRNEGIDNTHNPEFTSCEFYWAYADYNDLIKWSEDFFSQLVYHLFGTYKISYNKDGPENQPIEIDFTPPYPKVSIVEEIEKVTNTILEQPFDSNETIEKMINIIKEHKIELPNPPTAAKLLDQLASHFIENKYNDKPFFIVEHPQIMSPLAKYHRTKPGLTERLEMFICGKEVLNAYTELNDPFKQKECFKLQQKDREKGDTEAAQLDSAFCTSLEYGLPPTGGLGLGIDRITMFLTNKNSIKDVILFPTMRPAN
UniProt P9WNZ1, whole entry: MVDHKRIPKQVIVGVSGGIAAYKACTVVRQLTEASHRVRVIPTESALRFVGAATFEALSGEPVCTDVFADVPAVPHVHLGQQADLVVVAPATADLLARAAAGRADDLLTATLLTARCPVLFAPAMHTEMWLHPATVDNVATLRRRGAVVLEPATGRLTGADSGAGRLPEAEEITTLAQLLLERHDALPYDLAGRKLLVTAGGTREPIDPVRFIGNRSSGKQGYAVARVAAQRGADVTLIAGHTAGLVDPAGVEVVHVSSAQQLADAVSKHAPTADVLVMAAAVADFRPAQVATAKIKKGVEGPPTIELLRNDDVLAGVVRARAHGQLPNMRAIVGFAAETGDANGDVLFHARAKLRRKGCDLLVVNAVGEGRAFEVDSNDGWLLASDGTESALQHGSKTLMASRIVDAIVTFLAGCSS
UniProt I6X8D2, whole entry: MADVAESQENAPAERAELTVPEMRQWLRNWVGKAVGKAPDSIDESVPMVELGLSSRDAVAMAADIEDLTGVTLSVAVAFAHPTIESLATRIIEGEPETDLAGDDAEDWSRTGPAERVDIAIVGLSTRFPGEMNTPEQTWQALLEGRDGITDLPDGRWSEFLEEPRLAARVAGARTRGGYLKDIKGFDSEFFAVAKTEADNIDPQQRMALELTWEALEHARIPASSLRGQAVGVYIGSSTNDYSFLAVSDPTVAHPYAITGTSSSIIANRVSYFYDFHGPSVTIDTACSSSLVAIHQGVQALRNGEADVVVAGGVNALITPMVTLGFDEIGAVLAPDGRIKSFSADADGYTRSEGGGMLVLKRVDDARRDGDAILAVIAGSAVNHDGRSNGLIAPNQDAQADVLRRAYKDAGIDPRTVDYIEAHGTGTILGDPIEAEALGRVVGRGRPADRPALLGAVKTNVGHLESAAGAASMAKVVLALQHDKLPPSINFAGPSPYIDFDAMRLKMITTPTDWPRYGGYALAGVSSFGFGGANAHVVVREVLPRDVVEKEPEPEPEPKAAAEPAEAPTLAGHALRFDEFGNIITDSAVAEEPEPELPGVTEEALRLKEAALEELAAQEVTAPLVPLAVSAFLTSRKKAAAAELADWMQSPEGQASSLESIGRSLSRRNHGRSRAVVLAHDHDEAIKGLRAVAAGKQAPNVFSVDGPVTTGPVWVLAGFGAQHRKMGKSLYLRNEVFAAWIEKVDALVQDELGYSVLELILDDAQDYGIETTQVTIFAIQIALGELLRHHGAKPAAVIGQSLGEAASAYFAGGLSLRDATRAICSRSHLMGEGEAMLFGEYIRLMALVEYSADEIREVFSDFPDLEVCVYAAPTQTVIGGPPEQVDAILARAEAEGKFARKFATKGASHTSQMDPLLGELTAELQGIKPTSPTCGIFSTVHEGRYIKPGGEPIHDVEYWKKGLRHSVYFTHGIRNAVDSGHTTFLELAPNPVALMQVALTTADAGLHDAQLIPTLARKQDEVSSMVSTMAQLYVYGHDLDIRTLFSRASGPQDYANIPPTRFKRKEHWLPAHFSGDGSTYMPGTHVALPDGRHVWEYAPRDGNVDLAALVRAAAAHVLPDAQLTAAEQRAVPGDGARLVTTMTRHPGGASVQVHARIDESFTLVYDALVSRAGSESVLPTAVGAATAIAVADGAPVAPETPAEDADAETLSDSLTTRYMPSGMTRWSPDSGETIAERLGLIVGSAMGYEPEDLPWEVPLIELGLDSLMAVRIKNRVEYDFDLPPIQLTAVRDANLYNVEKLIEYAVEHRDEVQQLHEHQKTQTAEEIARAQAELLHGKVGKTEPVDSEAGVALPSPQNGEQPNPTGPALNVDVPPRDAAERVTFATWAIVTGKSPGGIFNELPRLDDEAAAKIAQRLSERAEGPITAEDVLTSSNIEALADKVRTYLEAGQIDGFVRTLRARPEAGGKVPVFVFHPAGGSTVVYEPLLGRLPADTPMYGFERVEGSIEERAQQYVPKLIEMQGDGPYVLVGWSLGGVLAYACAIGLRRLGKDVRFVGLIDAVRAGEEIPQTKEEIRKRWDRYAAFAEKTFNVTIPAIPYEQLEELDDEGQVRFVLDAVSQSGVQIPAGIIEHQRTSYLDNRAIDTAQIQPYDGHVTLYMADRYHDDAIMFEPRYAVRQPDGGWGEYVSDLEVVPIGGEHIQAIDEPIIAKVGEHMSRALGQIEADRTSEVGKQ

Values are the deposited “Percent Effect”, in %. The controls that fix the scale are not given in the record; negative values are as filed. This is an unselected part of the compounds tested.

ClpP1P2: 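ClpP1P2, Mycobacterium tuberculosis (UniProt P9WPC5 and UniProt P9WPC3). Protease assay of ClpP1P2, read by the AMC dye that it sets free. Compounds at 50 µM. Direction is inferred from only a few compounds that gave an IC50; most scored high, so higher reads as stronger inhibition. Most other retested compounds had strongly negative values. Of about 69,000 compounds tested this way, about 10 (0.015%) reached 50% or more in at least one test.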
TcHisRS: 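Histidine-tRNA ligase, Trypanosoma cruzi CL Brener (UniProt Q4DA54). Enzyme assay of histidyl-tRNA synthetase; the read-out is not stated. Concentration: 30 µM. Higher reads as stronger inhibition (inferred: compounds with an IC50 in retests scored well above the rest). About 69,000 compounds were tested under these conditions; 0.045% (about 31) showed 50% or more at least once.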
PfKRS1: 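Lysine-tRNA ligase, Plasmodium falciparum 3D7 (UniProt Q8IDJ8). Enzyme assay of the cytosolic lysyl-tRNA synthetase in 384-well plates, read by luminescence. Compounds at 30 µM. Direction is inferred from only a few compounds that gave an IC50; most scored high, so higher reads as stronger inhibition. About 69,000 compounds were tested under these conditions; 0.071% (about 49) showed 50% or more at least once.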
CoaBC: 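Coenzyme A biosynthesis protein CoaBC, Mycobacterium tuberculosis (UniProt P9WNZ1). Enzyme assay of CoaBC with a phosphate dye (Biomol Green) read at 650 nm. Compounds at 30 µM. Direction is inferred from only a few compounds that gave an IC50; most scored high, so higher reads as stronger inhibition. Most strong results did not repeat in a second test. Of about 67,000 compounds tested this way, about 40 (0.06%) reached 50% or more in at least one test.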
Leishmania in macrophages: 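Cell assay of Leishmania donovani living inside macrophages; the read-out is not stated. Tested at 30 µM. The record gives no direction; compounds that gave an IC50 in retests scored well above the rest, so higher reads as stronger inhibition. About 69,000 compounds were tested under these conditions; 1.5% (about 1,000) showed 50% or more at least once.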
Pks13 thioesterase: 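Polyketide synthase Pks13, Mycobacterium tuberculosis (UniProt I6X8D2). Enzyme assay of the thioesterase domain of polyketide synthase 13; the read-out is not stated. Tested at 30 µM. The record gives no direction; the compounds picked for IC50 retests had high values, so higher reads as stronger inhibition. About 67,000 compounds were tested under these conditions; 0.46% (about 300) showed 50% or more at least once.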

* Cl.Cl.O=C([C@@H]1CSCN1)N1CCC2(CC1)CNCc1ccccc12 : Leishmania in macrophages: 25.75%
* O=C(NCCOc1cccc(Cl)c1Cl)N1CCC2(CC1)OCCO2 : ClpP1P2: -6.401%; TcHisRS: 10.5%; PfKRS1: 4.808%; CoaBC: 0.3822%; Leishmania in macrophages: -1.917%; Pks13 thioesterase: -50.25%
* CC(C)CCN1C2(CCN(C(=O)N(C)C)C2)c2ccccc2S1(=O)=O (centres unmarked) : ClpP1P2: -17.52%; TcHisRS: 2.857%; PfKRS1: -3.326%; CoaBC: 2.836%; Leishmania in macrophages: -9.665%; Pks13 thioesterase: -11.7%
* CNc1ccnc(NCCC(=O)Nc2ccccc2C)n1 : ClpP1P2: -6.722%; TcHisRS: -0.8%; PfKRS1: -0.1276%; CoaBC: 11.04%; Leishmania in macrophages: 23.49%; Pks13 thioesterase: -12.36%
* CCc1c(C)n(CC(=O)OC)c2nc3ccccc3n2c1=O : ClpP1P2: -7.903%; TcHisRS: 6.186%; PfKRS1: -1.571%; CoaBC: -0.7075%; Leishmania in macrophages: -4.17%; Pks13 thioesterase: -8.031%
* CC1c2ccc(F)cc2CCN1C(=O)c1nc(=O)[nH][nH]1 (centres unmarked) : ClpP1P2: -8.293%; TcHisRS: 6.061%; PfKRS1: 1.854%; CoaBC: -2.02%; Leishmania in macrophages: -20.4%; Pks13 thioesterase: -6.628%
* O=C(NCc1ccccn1)[C@@H]1COC[C@H]2CN(c3ncccn3)C[C@H]21 : ClpP1P2: 7.29%; TcHisRS: 9.195%; PfKRS1: 4.609%; CoaBC: 5.906%; Pks13 thioesterase: 0.1567%
* Cc1nc(C)n(CC2CCCN2Cc2ccc(F)cc2C#N)n1 (centres unmarked) : ClpP1P2: 1.171%; TcHisRS: 2.041%; PfKRS1: 6.335%; CoaBC: 3.672%; Leishmania in macrophages: 28.46%; Pks13 thioesterase: -37.68%
* O=C(Cn1c(=O)n(Cc2ccco2)c2ncccc21)Nc1ccccn1 : ClpP1P2: -4.644%; TcHisRS: 4.865%; PfKRS1: -0.5282%; CoaBC: 0.8333%; Leishmania in macrophages: -24.57%; Pks13 thioesterase: -40.03%
* Cc1ncc(C(=O)N2CCC(N3C[C@@H](C)O[C@@H](C)C3)CC2)c(=O)[nH]1 : ClpP1P2: -9.727%; TcHisRS: -1.571%; PfKRS1: 3.065%; CoaBC: 5.967%; Leishmania in macrophages: 24.11%; Pks13 thioesterase: 1.957%
* O=C(O)C(F)(F)F.[H][C@@]12CCN(Cc3scnc3C)C[C@]1(C(=O)NC(C)C)CCO2 : Leishmania in macrophages: -27.5%
* Cc1nn(C)c(C)c1CC(=O)NCc1cccnc1N1CCOCC1 : ClpP1P2: 11.8%; TcHisRS: 12.06%; PfKRS1: 3.27%; CoaBC: 12.76%; Leishmania in macrophages: -5.135%; Pks13 thioesterase: -1.917%
* CN1CCCN(c2ccc(F)cc2CNC(=O)c2ccsc2)CC1 : ClpP1P2: 1.426%; TcHisRS: 4.348%; PfKRS1: 1.119%; CoaBC: -2.217%; Leishmania in macrophages: 20.88%; Pks13 thioesterase: -3.123%
* Nc1nc2c(c(NC3CCCC3)n1)CCN(C(=O)C1CCOC1)CC2 (centres unmarked) : ClpP1P2: -18.15%; TcHisRS: -3.279%; PfKRS1: -7.966%; CoaBC: 10.68%; Leishmania in macrophages: 10.89%; Pks13 thioesterase: 7.786%
* c1cncc(COCC2CN(Cc3ccco3)Cc3ccnn3C2)c1 (centres unmarked) : ClpP1P2: 13.41%; TcHisRS: -0.8475%; PfKRS1: 0.3001%; CoaBC: -2.203%; Leishmania in macrophages: -8.629%; Pks13 thioesterase: -3.946%
* Cc1nc(CNC(=O)c2cc(COc3ccccc3F)[nH]n2)n[nH]1 : ClpP1P2: 6.965%; TcHisRS: 4.464%; PfKRS1: 3.585%; CoaBC: 3.648%; Leishmania in macrophages: -1.372%; Pks13 thioesterase: -12.56%
* COc1ccccc1OC1CCN(C(=O)c2cccc(O)c2C)CC1 : ClpP1P2: -3.677%; TcHisRS: 4.046%; PfKRS1: 3.369%; CoaBC: 5.785%; Leishmania in macrophages: 18.19%; Pks13 thioesterase: -5.807%
* Cc1ccc(S(=O)(=O)N2C[C@H]3C[C@H](NC(=O)c4cc(C)no4)[C@H]3C2)cc1 : ClpP1P2: -1.677%; TcHisRS: 2.996%; PfKRS1: 2.7%; CoaBC: -24.66%; Pks13 thioesterase: -4.329%

Measurements from “University of Dundee, Small-Polar-MMV Screening Library” (2021), ChEMBL document CHEMBL3988442.